{"source": "paper PMC11552566", "target": "T1, STAT1 lacking the protein interaction domain (△1-121aa, △STAT_int-Flag) (UniProt P42225)", "T1 sequence": "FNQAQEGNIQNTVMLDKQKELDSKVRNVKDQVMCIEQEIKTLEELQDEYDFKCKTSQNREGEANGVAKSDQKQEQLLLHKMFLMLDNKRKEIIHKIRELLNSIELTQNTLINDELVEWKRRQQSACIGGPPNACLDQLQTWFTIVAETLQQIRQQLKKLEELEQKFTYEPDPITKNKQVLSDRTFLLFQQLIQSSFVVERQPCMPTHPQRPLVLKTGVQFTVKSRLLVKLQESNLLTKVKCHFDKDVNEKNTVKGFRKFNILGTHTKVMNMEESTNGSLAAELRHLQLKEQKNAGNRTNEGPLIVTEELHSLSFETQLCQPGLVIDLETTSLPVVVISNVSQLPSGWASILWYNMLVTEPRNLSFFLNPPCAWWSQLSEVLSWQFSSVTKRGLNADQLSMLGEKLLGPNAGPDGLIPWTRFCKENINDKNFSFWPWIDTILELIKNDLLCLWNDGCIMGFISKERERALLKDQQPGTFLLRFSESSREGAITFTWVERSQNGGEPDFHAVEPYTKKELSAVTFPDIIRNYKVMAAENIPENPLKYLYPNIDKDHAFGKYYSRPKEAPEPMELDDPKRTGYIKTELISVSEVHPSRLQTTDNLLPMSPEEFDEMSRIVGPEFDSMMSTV", "experiment": "co-IP; extracts of HEK293T cells transfected with HA-GR and Flag-STAT1 plasmids (full length or truncations), immunoprecipitated with HA antibodies (Figure 5G) or Flag antibodies (Figure 5H)", "note": "Results are given in words; binding and its absence hold for the method and conditions named. In cells and extracts the contact can be indirect. Sequences can lack the tags named with a protein."}
{"substance": "full-length GR (GR-HA) (receptor)", "values": [{"measurement": "binding", "value": "no binding"}]}
